According to the supplement of paper PMC10849652:
The other results are listed elsewhere or left out.

Chains of the proteins cited; added tags and fusions are not shown. Lines headed by an entry give the natural chain unless they say otherwise; changes in a name come on top.
UniProt P05543: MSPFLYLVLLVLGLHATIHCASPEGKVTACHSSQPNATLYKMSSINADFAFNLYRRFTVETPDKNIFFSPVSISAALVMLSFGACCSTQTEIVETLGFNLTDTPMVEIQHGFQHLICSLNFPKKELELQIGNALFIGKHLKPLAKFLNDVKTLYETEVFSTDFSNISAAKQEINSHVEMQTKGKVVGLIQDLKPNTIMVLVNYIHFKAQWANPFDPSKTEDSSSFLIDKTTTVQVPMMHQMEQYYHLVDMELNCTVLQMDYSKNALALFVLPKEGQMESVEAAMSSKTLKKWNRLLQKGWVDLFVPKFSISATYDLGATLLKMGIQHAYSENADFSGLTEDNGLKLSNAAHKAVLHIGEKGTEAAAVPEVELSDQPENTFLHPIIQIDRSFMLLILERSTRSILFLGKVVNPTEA
UniProt Q12874: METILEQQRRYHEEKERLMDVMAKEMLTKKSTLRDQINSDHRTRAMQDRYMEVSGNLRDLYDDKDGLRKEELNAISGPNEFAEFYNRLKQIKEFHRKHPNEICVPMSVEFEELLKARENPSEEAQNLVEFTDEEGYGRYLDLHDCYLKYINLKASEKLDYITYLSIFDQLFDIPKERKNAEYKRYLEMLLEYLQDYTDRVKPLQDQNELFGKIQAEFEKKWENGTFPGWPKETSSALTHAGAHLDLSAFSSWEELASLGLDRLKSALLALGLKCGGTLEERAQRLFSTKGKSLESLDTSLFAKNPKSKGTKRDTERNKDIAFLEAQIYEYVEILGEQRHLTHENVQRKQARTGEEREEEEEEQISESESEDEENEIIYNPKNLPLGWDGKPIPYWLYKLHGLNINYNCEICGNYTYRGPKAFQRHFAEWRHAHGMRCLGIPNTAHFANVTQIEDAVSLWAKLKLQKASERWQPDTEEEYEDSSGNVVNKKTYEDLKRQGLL
UniProt Q13228: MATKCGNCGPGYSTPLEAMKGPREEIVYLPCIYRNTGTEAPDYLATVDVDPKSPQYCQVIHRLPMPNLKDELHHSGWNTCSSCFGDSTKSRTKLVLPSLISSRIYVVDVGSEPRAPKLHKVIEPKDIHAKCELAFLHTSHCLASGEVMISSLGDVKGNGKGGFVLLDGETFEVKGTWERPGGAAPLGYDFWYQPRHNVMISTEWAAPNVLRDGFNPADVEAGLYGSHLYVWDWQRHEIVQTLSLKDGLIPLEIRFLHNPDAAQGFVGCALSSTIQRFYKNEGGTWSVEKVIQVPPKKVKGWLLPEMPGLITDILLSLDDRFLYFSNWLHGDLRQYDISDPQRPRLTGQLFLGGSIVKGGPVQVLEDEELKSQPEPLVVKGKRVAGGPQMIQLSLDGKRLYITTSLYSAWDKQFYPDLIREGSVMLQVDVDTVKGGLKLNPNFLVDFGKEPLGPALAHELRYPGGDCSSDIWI
UniProt Q92599: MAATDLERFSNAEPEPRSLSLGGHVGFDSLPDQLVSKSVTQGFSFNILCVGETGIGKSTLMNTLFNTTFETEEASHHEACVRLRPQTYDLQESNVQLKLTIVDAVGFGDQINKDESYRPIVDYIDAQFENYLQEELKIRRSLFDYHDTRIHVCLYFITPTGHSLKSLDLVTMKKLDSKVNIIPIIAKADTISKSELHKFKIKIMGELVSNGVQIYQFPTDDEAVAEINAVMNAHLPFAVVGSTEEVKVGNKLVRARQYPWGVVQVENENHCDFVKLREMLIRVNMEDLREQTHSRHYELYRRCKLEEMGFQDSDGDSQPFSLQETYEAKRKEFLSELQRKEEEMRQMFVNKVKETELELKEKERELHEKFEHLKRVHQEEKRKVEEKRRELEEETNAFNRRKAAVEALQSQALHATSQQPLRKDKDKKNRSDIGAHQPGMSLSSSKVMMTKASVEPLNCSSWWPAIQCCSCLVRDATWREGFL
UniProt O75368: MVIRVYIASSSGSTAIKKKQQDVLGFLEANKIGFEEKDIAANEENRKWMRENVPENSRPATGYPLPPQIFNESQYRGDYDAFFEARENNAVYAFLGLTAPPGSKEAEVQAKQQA
UniProt Q99574: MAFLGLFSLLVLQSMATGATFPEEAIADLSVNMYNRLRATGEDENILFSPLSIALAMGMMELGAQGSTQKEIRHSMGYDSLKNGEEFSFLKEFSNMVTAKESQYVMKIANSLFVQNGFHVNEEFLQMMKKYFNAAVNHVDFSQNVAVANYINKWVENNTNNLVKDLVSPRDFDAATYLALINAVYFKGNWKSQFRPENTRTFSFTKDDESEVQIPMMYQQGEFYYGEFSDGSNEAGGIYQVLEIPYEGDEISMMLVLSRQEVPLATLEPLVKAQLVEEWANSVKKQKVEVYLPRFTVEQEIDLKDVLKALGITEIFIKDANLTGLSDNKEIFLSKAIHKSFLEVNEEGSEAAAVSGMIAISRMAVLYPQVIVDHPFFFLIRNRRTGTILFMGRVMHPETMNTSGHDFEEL
UniProt Q13435: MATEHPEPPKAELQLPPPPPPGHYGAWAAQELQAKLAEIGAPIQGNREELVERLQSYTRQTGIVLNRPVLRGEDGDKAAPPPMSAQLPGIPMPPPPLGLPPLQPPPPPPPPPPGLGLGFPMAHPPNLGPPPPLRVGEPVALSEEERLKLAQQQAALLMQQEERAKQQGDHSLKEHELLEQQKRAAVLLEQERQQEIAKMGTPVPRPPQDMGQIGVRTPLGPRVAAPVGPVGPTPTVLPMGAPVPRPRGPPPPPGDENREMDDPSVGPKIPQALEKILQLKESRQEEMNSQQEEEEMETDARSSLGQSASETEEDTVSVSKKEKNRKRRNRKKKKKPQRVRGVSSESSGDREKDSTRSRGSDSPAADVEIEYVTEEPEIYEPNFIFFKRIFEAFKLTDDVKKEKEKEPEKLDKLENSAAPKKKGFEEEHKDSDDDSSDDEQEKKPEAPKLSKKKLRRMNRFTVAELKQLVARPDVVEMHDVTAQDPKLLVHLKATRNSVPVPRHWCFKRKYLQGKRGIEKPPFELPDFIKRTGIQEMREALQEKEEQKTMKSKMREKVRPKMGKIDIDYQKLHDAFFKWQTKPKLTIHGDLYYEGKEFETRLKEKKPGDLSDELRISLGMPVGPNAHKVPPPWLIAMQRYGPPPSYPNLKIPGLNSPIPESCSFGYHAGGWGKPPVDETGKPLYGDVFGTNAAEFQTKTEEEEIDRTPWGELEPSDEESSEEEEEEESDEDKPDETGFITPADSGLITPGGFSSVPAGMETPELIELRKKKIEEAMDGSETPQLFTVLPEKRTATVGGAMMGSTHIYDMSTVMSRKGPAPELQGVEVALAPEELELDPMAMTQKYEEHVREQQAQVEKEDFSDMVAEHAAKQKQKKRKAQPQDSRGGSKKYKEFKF
UniProt P50453: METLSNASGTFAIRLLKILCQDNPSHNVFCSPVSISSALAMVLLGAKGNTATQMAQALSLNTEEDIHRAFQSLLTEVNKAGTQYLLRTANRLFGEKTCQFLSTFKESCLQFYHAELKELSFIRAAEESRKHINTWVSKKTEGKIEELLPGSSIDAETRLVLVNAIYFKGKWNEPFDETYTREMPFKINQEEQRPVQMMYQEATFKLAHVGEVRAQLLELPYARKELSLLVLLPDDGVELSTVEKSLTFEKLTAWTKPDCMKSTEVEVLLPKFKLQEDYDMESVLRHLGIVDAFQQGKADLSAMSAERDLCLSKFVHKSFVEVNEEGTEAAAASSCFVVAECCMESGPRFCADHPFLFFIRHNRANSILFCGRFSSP
UniProt Q9H299: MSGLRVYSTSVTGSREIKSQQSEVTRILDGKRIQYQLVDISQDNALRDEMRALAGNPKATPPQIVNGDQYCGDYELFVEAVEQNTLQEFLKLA
UniProt Q9GZR1: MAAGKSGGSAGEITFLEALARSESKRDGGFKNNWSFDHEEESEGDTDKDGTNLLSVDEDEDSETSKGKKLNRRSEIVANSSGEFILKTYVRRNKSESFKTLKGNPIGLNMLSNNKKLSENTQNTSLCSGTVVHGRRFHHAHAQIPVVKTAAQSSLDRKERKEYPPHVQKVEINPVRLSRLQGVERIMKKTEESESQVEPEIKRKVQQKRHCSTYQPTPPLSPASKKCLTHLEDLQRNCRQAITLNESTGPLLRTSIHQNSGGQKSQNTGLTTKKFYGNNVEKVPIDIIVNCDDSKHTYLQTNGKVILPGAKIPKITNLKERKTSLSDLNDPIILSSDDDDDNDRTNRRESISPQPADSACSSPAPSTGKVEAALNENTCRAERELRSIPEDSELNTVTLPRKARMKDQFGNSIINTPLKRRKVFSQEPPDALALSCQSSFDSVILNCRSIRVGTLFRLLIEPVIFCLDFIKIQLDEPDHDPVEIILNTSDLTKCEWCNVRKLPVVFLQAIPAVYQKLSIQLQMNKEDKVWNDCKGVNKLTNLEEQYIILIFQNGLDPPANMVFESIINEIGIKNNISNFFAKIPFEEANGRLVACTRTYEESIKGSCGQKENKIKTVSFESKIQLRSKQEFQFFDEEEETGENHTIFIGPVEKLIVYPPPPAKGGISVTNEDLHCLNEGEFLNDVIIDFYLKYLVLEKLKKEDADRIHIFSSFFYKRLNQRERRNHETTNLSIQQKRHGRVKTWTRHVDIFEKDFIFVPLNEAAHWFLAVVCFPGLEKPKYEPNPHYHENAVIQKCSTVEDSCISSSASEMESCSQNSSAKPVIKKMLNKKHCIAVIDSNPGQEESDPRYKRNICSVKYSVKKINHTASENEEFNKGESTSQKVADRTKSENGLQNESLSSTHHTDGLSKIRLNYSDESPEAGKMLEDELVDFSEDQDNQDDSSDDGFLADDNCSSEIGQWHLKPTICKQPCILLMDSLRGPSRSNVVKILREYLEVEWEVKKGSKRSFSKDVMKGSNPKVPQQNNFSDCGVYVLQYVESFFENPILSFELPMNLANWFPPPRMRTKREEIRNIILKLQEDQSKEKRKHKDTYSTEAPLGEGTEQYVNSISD
UniProt Q8IZQ5, whole entry, looked up: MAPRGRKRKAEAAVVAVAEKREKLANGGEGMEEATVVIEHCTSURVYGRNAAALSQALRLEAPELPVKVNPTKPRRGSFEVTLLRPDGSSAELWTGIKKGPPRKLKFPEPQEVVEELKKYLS
UniProt Q9NZV5, whole entry, looked up: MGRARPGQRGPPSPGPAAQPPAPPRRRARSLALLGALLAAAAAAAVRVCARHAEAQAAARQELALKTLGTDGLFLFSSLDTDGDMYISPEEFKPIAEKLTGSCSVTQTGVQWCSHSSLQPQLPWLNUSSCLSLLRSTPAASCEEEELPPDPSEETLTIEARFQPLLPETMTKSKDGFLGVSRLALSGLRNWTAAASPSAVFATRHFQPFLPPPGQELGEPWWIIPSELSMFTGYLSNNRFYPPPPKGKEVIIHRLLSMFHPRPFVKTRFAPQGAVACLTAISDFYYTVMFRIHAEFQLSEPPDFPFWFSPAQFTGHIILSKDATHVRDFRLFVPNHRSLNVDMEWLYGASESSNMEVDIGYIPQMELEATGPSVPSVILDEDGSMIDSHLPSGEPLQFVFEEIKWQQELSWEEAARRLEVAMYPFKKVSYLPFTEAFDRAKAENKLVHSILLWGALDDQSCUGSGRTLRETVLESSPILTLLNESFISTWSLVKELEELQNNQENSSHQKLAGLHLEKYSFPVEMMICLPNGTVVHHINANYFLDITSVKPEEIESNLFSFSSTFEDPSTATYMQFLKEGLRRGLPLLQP
UniProt P84101: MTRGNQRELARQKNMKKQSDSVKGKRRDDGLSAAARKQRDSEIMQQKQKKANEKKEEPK
UniProt Q96EE3: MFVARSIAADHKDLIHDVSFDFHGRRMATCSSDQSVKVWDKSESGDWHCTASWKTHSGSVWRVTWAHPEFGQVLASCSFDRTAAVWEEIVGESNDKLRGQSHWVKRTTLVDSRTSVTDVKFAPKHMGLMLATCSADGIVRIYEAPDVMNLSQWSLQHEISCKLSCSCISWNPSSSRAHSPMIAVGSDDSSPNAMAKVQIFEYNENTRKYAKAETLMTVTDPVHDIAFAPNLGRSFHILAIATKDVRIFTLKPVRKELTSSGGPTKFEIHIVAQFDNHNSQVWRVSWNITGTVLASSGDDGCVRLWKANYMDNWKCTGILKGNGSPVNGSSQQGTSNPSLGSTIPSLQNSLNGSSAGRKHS

Legend:
Assay in all cases: log2 fold change, soluble protein after heating vs DMSO (PISA); higher = thermal stabilisation; K562 cells, 10 uM, 30 min; active = over 0.2 and 3.5 SD of the protein, either way, in both replicates (recomputed)
[1] = compound: NC(=O)Nc1cc(-c2cccc(F)c2)sc1C(=O)N[C@H]1CCCNC1
How it was run: (§1)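 K562 cells (2×10^6 cells/mL) were treated with 10 μM compound for 30 min, and aliquots were heated for 3 min over 48°C-58°C. Pooled aliquots were extracted in PBS with 0.5% NP-40 at 4°C, and the supernatant after 21,000xg for 90 min was measured by TMTpro 16plex LC-MS/MS with channel sums equalised. Reported thermal stability, relative to control samples and from duplicates, is a log2 fold change.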

[2] = compound: NC(=O)c1cnc(N[C@@H]2CCCC[C@@H]2N)nc1Nc1cccc(-n2nccn2)c1
How it was run: as §1

[3] = compound: NC1(c2ccc(-c3nc4ccn5c(=O)[nH]nc5c4cc3-c3ccccc3)cc2)CCC1
How it was run: as §1

[4] = compound: NCC(=O)Nc1ccc(-n2nc(C(F)(F)F)cc2-c2ccc3c(ccc4ccccc43)c2)cc1
How it was run: as §1

entinostat = compound: Nc1ccccc1NC(=O)c1ccc(CNC(=O)OCc2cccnc2)cc1 [entinostat]
How it was run: as §1

vorinostat = compound: O=C(CCCCCCC(=O)Nc1ccccc1)NO [vorinostat]
How it was run: as §1

citarinostat = compound: O=C(CCCCCCNC(=O)c1cnc(N(c2ccccc2)c2ccccc2Cl)nc1)NO [citarinostat]
How it was run: as §1

silmitasertib = compound: O=C(O)c1ccc2c(c1)nc(Nc1cccc(Cl)c1)c1ccncc12 [silmitasertib]
How it was run: as §1

[5] = compound: O=C1NC(=O)C(c2cnc3ccccn23)=C1c1cn2c3c(cc(F)cc13)CN(C(=O)N1CCCCC1)CC2
How it was run: as §1

[6] = compound: c1cc(OCCN2CCCCC2)cc(-c2n[nH]c3ccc(-c4nnc[nH]4)cc23)c1
How it was run: as §1

Measured: log2 fold change

SERPINA7 (UniProt P05543)
inactive: [1] -0.062 | [2] 0.132 | [3] 0.234 | [4] -0.075 | entinostat -0.084 | vorinostat -0.164 | citarinostat -0.011 | silmitasertib 0.091 | [5] 0.089 | [6] 0.367

SF3A3 (UniProt Q12874)
inactive: [1] 0.044 | [2] -0.05 | [3] 0.029 | [4] -0.077 | entinostat 0.064 | vorinostat 0.038 | citarinostat 0.05 | silmitasertib 0.09 | [5] 0.008 | [6] -0.087

SELENBP1 isoform 4 (UniProt Q13228)
inactive: [1] 0.078 | [2] 0.051 | [3] 0.015 | [4] 0.079 | entinostat -0.006 | vorinostat 0.019 | citarinostat 0.039 | silmitasertib -0.027 | [5] 0.008 | [6] 0.012

SEPTIN8 (UniProt Q92599)
inactive: [1] 0.018 | [2] -0.021 | [3] -0.026 | [4] 0.015 | entinostat -0.029 | vorinostat 0.008 | citarinostat 0.023 | silmitasertib -0.047 | [5] 0.003 | [6] -0.013

SH3BGRL (UniProt O75368)
inactive: [1] 0.149 | [2] -0.028 | [3] -0.046 | [4] 0.07 | entinostat 0.084 | vorinostat -0.08 | citarinostat 0.043 | silmitasertib -0.036 | [5] -0.046 | [6] 0.025

SERPINI1 (UniProt Q99574)
inactive: [1] 0.044 | [2] -0.026 | [3] 0 | [4] 0.17 | entinostat -0.047 | vorinostat -0.131 | citarinostat 0.022 | silmitasertib 0.036 | [5] -0.09 | [6] -0.146

SF3B2 (UniProt Q13435)
inactive: [1] 0.025 | [2] 0.004 | [3] 0.097 | [4] -0.003 | entinostat 0.027 | vorinostat 0.017 | citarinostat 0.014 | silmitasertib 0.074 | [5] 0.052 | [6] -0.1

Reprinted from the results shown (two entries):
SH3BGRL (UniProt O75368)
inactive: [1] 0.149 | [2] -0.028 | [3] -0.046 | [4] 0.07 | entinostat 0.084 | vorinostat -0.08 | citarinostat 0.043 | silmitasertib -0.036 | [5] -0.046 | [6] 0.025

SERPINI1 (UniProt Q99574)
inactive: [1] 0.044 | [2] -0.026 | [3] 0 | [4] 0.17 | entinostat -0.047 | vorinostat -0.131 | citarinostat 0.022 | silmitasertib 0.036 | [5] -0.09 | [6] -0.146

Additional results:

SERPINB9 (UniProt P50453)
inactive: [1] 0.031 | [2] 0.003 | [3] -0.019 | [4] 0.022 | entinostat -0.015 | vorinostat -0.014 | citarinostat 0.022 | silmitasertib -0.046 | [5] -0.004 | [6] 0.003

SH3BGRL3 (UniProt Q9H299)
inactive: [1] -0.028 | [2] -0.062 | [3] 0.002 | [4] 0.051 | entinostat 0 | vorinostat -0.05 | citarinostat -0.003 | silmitasertib -0.036 | [5] -0.064 | [6] -0.027

SENP6 (UniProt Q9GZR1)
inactive: [1] 0.011 | [2] -0.009 | [3] -0.073 | [4] -0.023 | entinostat -0.019 | vorinostat -0.021 | citarinostat 0.04 | silmitasertib -0.118 | [5] 0.027 | [6] -0.049

SELENOH (UniProt Q8IZQ5)
inactive: [1] 0.227 | [2] 0.194 | [3] 0.011 | [4] 0.049 | entinostat 0.066 | vorinostat -0.007 | citarinostat 0.067 | silmitasertib 0.011 | [5] 0.038 | [6] 0.053

SELENON (UniProt Q9NZV5)
inactive: [1] 0.101 | [2] -0.163 | [4] -0.277 | entinostat -0.157

SEPTIN5 (UniProt G3XAH0)
inactive: [1] 0.008 | [2] 0.004 | [3] -0.142 | [4] 0.016 | entinostat -0.031 | vorinostat 0.16 | silmitasertib -0.023 | [5] -0.028

SERF2 (UniProt P84101)
inactive: [1] -0.051 | [3] 0.067 | [4] -0.025 | entinostat -0.026 | vorinostat 0.251 | citarinostat -0.135 | silmitasertib 0.03 | [5] -0.026 | [6] 0.021

SEH1L isoform 1 (UniProt Q96EE3)
inactive: [1] 0.007 | [2] -0.027 | [3] -0.014 | [4] -0.004 | entinostat -0.04 | vorinostat 0.022 | citarinostat 0.064 | silmitasertib 0.076 | [5] -0.027 | [6] -0.065
